Like-named read-outs stand apart in the source and are kept apart here. Marks after values point to notes of the source that are not given here.
Experiments:
Conditions in all cases: 30-minute exposure, ± standard deviation
[1] = test system: THP-1 (human monocytic leukemia)
[2] = test system: YT-INDY (human NK cell leukemia)
Normal PBMC = test system: Normal PBMC
[3] = test system: Jurkat (human T lymphocytic leukemia)
[4] = test system: K-562 (human erythroleukemia)
[5] = initial 25 μM hydrogen peroxide
[6] = initial 50 μM hydrogen peroxide
[7] = initial 100 μM hydrogen peroxide
[8] = initial 200 μM hydrogen peroxide

SMILES: OO [Hydrogen Peroxide, hydrogen peroxide]
- percentage of hydrogen peroxide remaining in cultures [1, 5]: 12.8 ± 0.4%
- percentage of hydrogen peroxide remaining in cultures [1, 6]: 10.4 ± 0.2%
- percentage of hydrogen peroxide remaining in cultures [1, 7]: 11.1 ± 0.0%
- percentage of hydrogen peroxide remaining in cultures [1, 8]: 13.9 ± 0.3%
- percentage of hydrogen peroxide remaining in cultures [2, 5]: 48.0 ± 1.6%
- percentage of hydrogen peroxide remaining in cultures [2, 6]: 32.1 ± 0.0%
- percentage of hydrogen peroxide remaining in cultures [2, 7]: 30.9 ± 1.1%
- percentage of hydrogen peroxide remaining in cultures [2, 8]: 49.3 ± 2.3%
- percentage of hydrogen peroxide remaining in cultures (Normal PBMC; [5]): 31.7 ± 2.4^b %
- percentage of hydrogen peroxide remaining in cultures (Normal PBMC; [6]): 13.8 ± 1.8%
- percentage of hydrogen peroxide remaining in cultures (Normal PBMC; [7]): 9.2 ± 1.9%
- percentage of hydrogen peroxide remaining in cultures (Normal PBMC; [8]): 11.8 ± 0.4%
- percentage of hydrogen peroxide remaining in cultures [3, 5]: 97.2 ± 6.8%
- percentage of hydrogen peroxide remaining in cultures [3, 6]: 73.0 ± 18.8%
- percentage of hydrogen peroxide remaining in cultures [3, 7]: 85.3 ± 13.0%
- percentage of hydrogen peroxide remaining in cultures [3, 8]: 96.0 ± 0.0%
- percentage of hydrogen peroxide remaining in cultures [4, 5]: 47.6 ± 1.6%
- percentage of hydrogen peroxide remaining in cultures [4, 6]: 54.8 ± 10.0%
- percentage of hydrogen peroxide remaining in cultures [4, 7]: 73.1 ± 2.1%
- percentage of hydrogen peroxide remaining in cultures [4, 8]: 73.1 ± 1.4%

Source: patent US20090269798A1, “METHOD AND SYSTEM FOR SELECTING CHEMOTHERAPEUTIC AGENTS” (UNIVERSITY OF NORTHERN IOWA RESEARCH FOUNDATION, priority 2008, published 2009)
